Assay results from publication PMC5325399.
Results are given in words; binding and its absence hold for the method and conditions named. Binding seen in cells or lysates may run through a third protein.

Molecular target: E-cadherin (CDH1) (mouse (endogenous in G-2 cells))
Assay: co-IP; 200 μg G-2 cell lysate in CHAPS buffer (100 mM Tris-HCl pH 7.4, 50 mM NaCl, 1 mM EDTA, 1% NP40, 0,1% CHAPS); anti-mouse CEACAM1 antibody CC1 or anti-E-cadherin antibodies on protein G sepharose, overnight at 4°C; immunoblot with anti-β-catenin and anti-CEACAM1

B1: carcinoembryonic antigen-related cell adhesion molecule 1 (CEACAM1) (protein, UniProt P31809 35-521)
chain: EVTIEAVPPQVAEDNNVLLLVHNLPLALGAFAWYKGNTTAIDKEIARFVPNSNMNFTGQAYSGREIIYSNGSLLFQMITMKDMGVYTLDMTDENYRRTQATVRFHVHPILLKPNITSNNSNPVEGDDSVSLTCDSYTDPDNINYLWSRNGESLSEGDRLKLSEGNRTLTLLNVTRNDTGPYVCETRNPVSVNRSDPFSLNIIYGPDTPIISPSDIYLHPGSNLNLSCHAASNPPAQYFWLINEKPHASSQELFIPNITTNNSGTYTCFVNNSVTGLSRTTVKNITVLEPVTQPFLQVTNTTVKELDSVTLTCLSNDIGANIQWLFNSQSLQLTERMTLSQNNSILRIDPIKREDAGEYQCEISNPVSVRRSNSIKLDIIFDPTQGGLSDGAIAGIVIGVVAGVALIAGLAYFLYSRKSGGGSDQRDLTEHKPSTSNHNLAPSDNSPNKVDDVAYTVLNFNSQQPNRPTSAPSSPRATETVYSEVKKK
With B1 the binding was “no binding”.
